These are yes or no findings as the source states them, for the method shown. Some entries that bind do so weakly or less than the wild type.

Amino acid sequences for entries named in this document (tags omitted). Residues count along the entry.
UniProt Q8TDQ0, residues 22-200: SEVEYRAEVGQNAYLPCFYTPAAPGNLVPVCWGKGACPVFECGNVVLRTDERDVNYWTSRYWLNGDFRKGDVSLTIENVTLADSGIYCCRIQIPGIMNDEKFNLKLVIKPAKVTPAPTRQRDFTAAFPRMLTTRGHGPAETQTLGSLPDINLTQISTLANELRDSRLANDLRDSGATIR
UniProt Q8NHL6, residues 24-458: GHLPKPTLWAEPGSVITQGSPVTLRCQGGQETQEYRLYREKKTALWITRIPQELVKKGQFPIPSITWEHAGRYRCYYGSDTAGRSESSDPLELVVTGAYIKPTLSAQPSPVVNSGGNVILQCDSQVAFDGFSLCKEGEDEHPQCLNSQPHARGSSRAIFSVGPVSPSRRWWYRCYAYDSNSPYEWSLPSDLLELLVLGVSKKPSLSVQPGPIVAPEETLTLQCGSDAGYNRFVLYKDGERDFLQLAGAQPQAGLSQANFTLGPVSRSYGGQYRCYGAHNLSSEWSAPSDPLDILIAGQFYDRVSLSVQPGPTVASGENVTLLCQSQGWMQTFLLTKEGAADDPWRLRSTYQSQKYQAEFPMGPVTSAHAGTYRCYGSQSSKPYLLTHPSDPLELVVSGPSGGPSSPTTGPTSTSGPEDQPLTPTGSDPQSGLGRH
UniProt Q8N423, residues 22-460: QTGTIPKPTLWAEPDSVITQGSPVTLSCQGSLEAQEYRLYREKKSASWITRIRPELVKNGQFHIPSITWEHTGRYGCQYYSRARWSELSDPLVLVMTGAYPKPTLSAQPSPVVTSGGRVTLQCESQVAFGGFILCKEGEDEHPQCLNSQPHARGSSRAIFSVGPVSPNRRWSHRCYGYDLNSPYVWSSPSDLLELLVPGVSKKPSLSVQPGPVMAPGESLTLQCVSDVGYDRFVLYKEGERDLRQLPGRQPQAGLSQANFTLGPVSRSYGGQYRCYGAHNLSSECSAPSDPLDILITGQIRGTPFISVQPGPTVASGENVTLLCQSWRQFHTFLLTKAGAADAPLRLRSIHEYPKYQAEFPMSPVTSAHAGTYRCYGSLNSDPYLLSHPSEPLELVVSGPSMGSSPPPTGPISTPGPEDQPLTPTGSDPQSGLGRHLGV

For the experiment, the target named is T1, human sema4A (human) (UniProt Q9H3S1).
T1 sequence (looked up): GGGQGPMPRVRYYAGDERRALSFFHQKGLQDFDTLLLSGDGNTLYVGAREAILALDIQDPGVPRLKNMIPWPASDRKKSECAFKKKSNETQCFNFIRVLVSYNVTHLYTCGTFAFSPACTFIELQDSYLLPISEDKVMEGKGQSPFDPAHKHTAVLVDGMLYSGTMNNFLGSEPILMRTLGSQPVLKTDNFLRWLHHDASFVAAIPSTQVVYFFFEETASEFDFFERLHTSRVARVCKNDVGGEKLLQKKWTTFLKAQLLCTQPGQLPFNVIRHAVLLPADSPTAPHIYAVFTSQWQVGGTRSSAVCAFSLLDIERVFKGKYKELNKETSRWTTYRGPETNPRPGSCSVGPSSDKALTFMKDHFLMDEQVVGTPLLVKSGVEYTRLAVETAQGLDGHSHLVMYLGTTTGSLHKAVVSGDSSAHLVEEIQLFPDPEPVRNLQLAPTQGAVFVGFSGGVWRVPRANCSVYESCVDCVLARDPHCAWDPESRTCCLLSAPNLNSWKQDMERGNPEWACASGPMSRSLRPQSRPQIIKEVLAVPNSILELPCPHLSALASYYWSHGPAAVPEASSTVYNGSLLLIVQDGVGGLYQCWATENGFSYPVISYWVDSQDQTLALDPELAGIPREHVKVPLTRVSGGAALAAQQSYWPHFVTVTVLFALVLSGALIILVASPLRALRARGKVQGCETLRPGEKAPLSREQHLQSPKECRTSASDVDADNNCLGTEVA
Put plainly: binding to sema4A transfected cell line (FIGS. 20A, 20B).

As to “human T-cell immunoglobulin domain and human mucin domain 3 (hTIM-3) (from UniProt Q8TDQ0 22-200) (receptor)”, the binding result is “binds”.

On to “human immunoglobulin-like transcript-2 (hILT-2) (from UniProt Q8NHL6 24-458) (receptor)”, for which the binding result was “binds”.

With “human immunoglobulin-like transcript-4 (hILT-4) (from UniProt Q8N423 22-460) (receptor)”, the binding result is given as “binds”.

Values taken from US20150004178A1.
